Screen size: about 340,000 compounds; about 4,500 (1.3%) were called active. This list was built around the results that the source calls inconclusive (neither active nor inactive); the mix of calls is not that of the screen. The call rests on the fitted dose curve; in most records, active means well fitted inhibition curve with a large enough effect; inconclusive means small, poorly fitted or top-dose-only effect, or another doubt; inactive means no such curve, though single readings can be large or run the other way. Potencies of inconclusive entries are doubtful fits and often do not repeat.
Molecular target: DNA polymerase beta (Homo sapiens) (UniProt P06746)
Assay: qHTS Assay for Inhibitors of DNA Polymerase Beta
Details: Pol beta primer extension/strand displacement, fluorescence kinetic; activity change, negative = inhibition: at 114 µM (top of the series)
Procedure, shortened: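 10 nM enzyme + cpd, 15 min RT; start with substrate 50 nM final; read 0 min and after 10 min RT. Corrected, normalized data; 4-parameter Hill curve fit.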
On the % scale 0 is the no-effect control and ±100 the full control effect; potency means the concentration at half of the fitted maximal effect.

Compound	Potency	activity change, negative = inhibition
O=C(NCCO)c1ccc(Cl)c(Cl)c1	inconclusive: 2.82 µM [inhibitor, partial curve, poor fit]	–
O=C(COc1ccc(Cl)cc1Cl)N/N=C/c1ccc(OC2OC(CO)C(O)C(O)C2O)cc1 (configuration not stated)	inactive	–
CCCn1c(CN2CCCCC2C)nc2c1c(=O)n(C)c(=O)n2C (configuration not stated)	inconclusive: 20 µM [inhibitor, partial curve]	–
CC(=O)N1CCOc2ccc(S(=O)(=O)NCC3CCC(C(=O)Nc4ccc(C)cn4)CC3)cc21 (configuration not stated)	inactive	–
Cc1cc(Br)ccc1SCC(=O)OCC(=O)NC1CC1	inconclusive: 17.8 µM [inhibitor, single point]	–
O=C(/C=C/C=C/c1ccccc1)c1ccco1	inconclusive: 39.8 µM [inhibitor, partial curve]	–
ON=C1c2cc(OCCN3CCCCC3)ccc2-c2ccc(OCCN3CCCCC3)cc21	inactive	–
COc1ccc(S(=O)(=O)N2CCCCC2)cc1NCC(=O)Nc1ccc(C)cc1	–	inconclusive: -31% [inhibitor]
CCc1ccc(N(CC(=O)NCc2cccnc2)S(=O)(=O)c2ccccc2)cc1	–	inconclusive: -42.1% [inhibitor]
Nc1nc(C23CC4CC(CC(C4)C2)C3)[nH]c(=O)n1	inactive	–
Clc1ccc2oc(-c3cccnc3NCc3ccccc3)nc2c1	inconclusive: 89.1 µM [inhibitor, single point]	–
CC(C)CNC(=S)N1CCN(Cc2ccc3c(c2)OCO3)CC1	inconclusive: 3.16 µM [inhibitor, full curve]	–
CN(C)NC(=S)NC1CC2CCC1C2 (configuration not stated)	inactive	–
CCOCCCNC(=S)N1CCN(c2nc(-c3ccc(F)cc3)cs2)CC1	inactive	–
CCCc1cc(-n2ccnc2)n2c(nc3ccccc32)c1C#N	inconclusive: 8.91 µM [inhibitor, full curve, poor fit]	–
CCc1ccc(CN2CCC(C(=O)Nc3cccc(-c4nnc(C)s4)c3)CC2)o1	inconclusive: 31.6 µM [inhibitor, single point]	–
CN(C)c1ccc2nc3c(=O)[nH]c(=O)nc-3n(CC(O)C(O)C(O)CO)c2c1 (configuration not stated)	active: 25.1 µM	–
O=C(O)CCCC(=O)Nc1ccc(C(=O)N2CCCCC2)c(Cl)c1	inconclusive: 39.8 µM [inhibitor, single point]	–
O=C(NNC(=O)c1cc2ccccc2cc1O)Nc1ccc(F)cc1F	inconclusive: 79.4 µM [inhibitor, single point]	–
CC(C)n1c(=O)c2oc3ccccc3c2n(CC(=O)Nc2ccccc2Cl)c1=O	inactive	–
O=C1CC(c2ccc(Br)cc2)c2c(ccc3ccccc23)N1 (configuration not stated)	inconclusive: 0.891 µM [inhibitor, full curve, poor fit]	–
CCOc1ccc2[nH]c3c(=O)n(CCC4=CCCCC4)cnc3c2c1	inconclusive: 89.1 µM [inhibitor, single point]	–
Cc1nnc(SCC(=O)Nc2cc(Cl)ccc2Cl)n1CC1CCCO1 (configuration not stated)	–	inconclusive: -35.5% [inhibitor]
O=c1cc(/C=C/c2cccs2)[nH]c2ccccc12	inconclusive: 56.2 µM [inhibitor, partial curve]	–

10 consecutive entries from above, quoted:
Compound	Potency	activity change, negative = inhibition
O=C(NCCO)c1ccc(Cl)c(Cl)c1	inconclusive: 2.82 µM [inhibitor, partial curve, poor fit]	–
O=C(COc1ccc(Cl)cc1Cl)N/N=C/c1ccc(OC2OC(CO)C(O)C(O)C2O)cc1 (configuration not stated)	inactive	–
CCCn1c(CN2CCCCC2C)nc2c1c(=O)n(C)c(=O)n2C (configuration not stated)	inconclusive: 20 µM [inhibitor, partial curve]	–
CC(=O)N1CCOc2ccc(S(=O)(=O)NCC3CCC(C(=O)Nc4ccc(C)cn4)CC3)cc21 (configuration not stated)	inactive	–
Cc1cc(Br)ccc1SCC(=O)OCC(=O)NC1CC1	inconclusive: 17.8 µM [inhibitor, single point]	–
O=C(/C=C/C=C/c1ccccc1)c1ccco1	inconclusive: 39.8 µM [inhibitor, partial curve]	–
ON=C1c2cc(OCCN3CCCCC3)ccc2-c2ccc(OCCN3CCCCC3)cc21	inactive	–
COc1ccc(S(=O)(=O)N2CCCCC2)cc1NCC(=O)Nc1ccc(C)cc1	–	inconclusive: -31% [inhibitor]
CCc1ccc(N(CC(=O)NCc2cccnc2)S(=O)(=O)c2ccccc2)cc1	–	inconclusive: -42.1% [inhibitor]
Nc1nc(C23CC4CC(CC(C4)C2)C3)[nH]c(=O)n1	inactive	–

Later entries.

Compound	Potency	activity change, negative = inhibition
Cc1nc(SC(C)C(=O)Nc2cccc(C(F)(F)F)c2)c2c(C)c(C(=O)O)sc2n1 (configuration not stated)	–	inconclusive: -108% [inhibitor]
O=C(N/N=C/c1ccccc1Cl)c1[nH]c2ccc(Br)cc2c1-c1ccccc1	inconclusive: 79.4 µM [inhibitor, single point]	–
O=C(Nc1ccc(Cl)cc1F)C1CCN(S(=O)(=O)c2cccc3nonc23)CC1	inactive	–
C=CCOc1cccc(/C=C2\C(=O)N(Cc3ccc(C)cc3)C(C)=C2C(=O)OC)c1	inconclusive: 3.55 µM [inhibitor, full curve, poor fit]	–
COc1ccc(/C=C/C(=O)NCCCc2ccccc2)cc1OC	inactive	–
COc1cccc(OC)c1OCCN1CCCC1	inconclusive: 20 µM [inhibitor, partial curve]	–
CCOc1ccc(OCc2ccc(C(=O)N3CCCCC3)o2)cc1	inconclusive: 79.4 µM [inhibitor, single point]	–
Nc1c(C(=O)OCC2CCCO2)c2nc3ccccc3nc2n1C1CCCC1 (configuration not stated)	inconclusive: 0.794 µM [inhibitor, full curve]	–
COc1cc(NC(=O)c2nn(C)c3c2COc2ccccc2-3)cc(OC)c1OC	inactive	–
O=C(NCc1ccco1)c1cc2cc(Br)ccc2o1	inconclusive: 12.6 µM [inhibitor, full curve]	–
Cc1c(C(=O)OCCOC(C)C)[nH]c2c1C(=O)CC(c1ccco1)C2 (configuration not stated)	active: 20 µM	–
COc1ccccc1Nc1c2c(nc3ccc(NC(=O)c4ccc(N(C)C)cc4)cc13)CCCC2	inactive	–
O=C(COC(=O)c1c(F)cccc1F)Nc1ccccc1OC(F)F	inconclusive: 89.1 µM [inhibitor, single point]	–
O=C(CSc1nnc(-c2ccco2)c(-c2ccco2)n1)c1ccccc1	inactive	–
Cc1nc2nc(NCc3ccc(Br)cc3)[nH]n2c(=O)c1Cc1ccccc1	inconclusive: 39.8 µM [inhibitor, single point]	–
CN(C)c1ccc(CNC(=O)c2ccc3nc(Cc4ccccc4)oc3c2)cc1	inactive	–
C=CCn1c2ccccc2c2nnc(SCN3C(=O)c4ccccc4C3=O)nc21	inconclusive: 0.112 µM [inhibitor, full curve, poor fit]	–
CCOc1ccc(C(=O)NCc2ccco2)cc1Cl	inconclusive: 39.8 µM [inhibitor, partial curve, poor fit]	–
Cc1cccc(C)c1NC(=O)C1(N2C(=O)CC2c2ccccc2)CCCCC1 (configuration not stated)	inconclusive: 89.1 µM [inhibitor, single point]	–
CC(=O)n1cc(N(C(=O)CCl)c2ccc(C)cc2)c2ccccc21	inactive	–
O=c1c2c([N+](=O)[O-])cc([N+](=O)[O-])cc2sn1-c1ccc(Br)cc1	inactive	–
COc1cc(NC(=S)N2CCN(S(=O)(=O)c3ccccc3)CC2)cc(OC)c1	inconclusive: 100 µM [inhibitor, single point]	–
CCCCCn1c(CNC(=O)CC)nc2ccccc21	inconclusive: 2 µM [inhibitor, full curve]	–

From PubChem BioAssay AID485314 (National Center for Advancing Translational Sciences (NCATS), 2010)
